Measurements as given in patent US20120041305A1, “LIGHT-EMITTING DYE FOR INTRAOPERATIVE IMAGING OR SENTINEL LYMPH NODE BIOPSY” (THE UNIVERSITY OF UTAH RESEARCH FOUNDATION, priority 2009, published 2012).
“Also recorded” adds a separate entry of the source. At least one compound was matched to its structure with a doubt left.

Experiments:
[1] = 120 colon cancer patients, intramural bowel injection; cited from earlier work
[2] = Porcine model of lymphatic mapping (intradermal limb injection); type: in vivo, swine
[3] = Human melanoma clinical trial, intraoperative sentinel lymph node fluorescence; type: in vivo; conditions: 0.01% dose
Experimental: Patients with cutaneous malignant melanoma with a Breslow thickness of 0.75 mm or greater, or Clark level IV/V involvement, or ulceration were enrolled in the trial. All patients underwent preoperative lymphoscintigraphy with 99m-Technetium labeled sulfur colloid up to 24 hours before the operation. The normally used intraoperative vital blue dye was replaced by fluorescein. The initial starting dose of fluorescein was 0.001% and 1 ml was injected intradermally intraoperatively in 4 locations around the melanoma biopsy site. At this does, sentinel lymph node fluorescence was identified in 3 out of 5 patients (60%). […] The 0.01% dose was used in the subsequent phase II study.

[4] = Initial evaluation of fluorescein lymphatic mapping in pigs with blue LED illumination (open dissection and transdermal); type: in vivo, pig; conditions: 3 pigs, open dissection

O=C1OC2(c3ccc(O)cc3Oc3cc(O)ccc32)c2ccccc21 [fluorescein, Fluorescein]
patients in whom the sentinel lymph node was identified [1]: 97% | detection of afferent lymphatic and sentinel lymph node compared with blue dye ([2]; pigs, intradermal): improved detection of the afferent lymphatic and the sentinel lymph node compared to 1% isosulfan blue; also recorded: superior to the non-fluorescent blue dye, Lymphazurin® | transdermal visualization of fluorescence ([2]; pigs, intradermal): clearly visualized transdermally | sentinel node fluorescence in open surgical wound ([2]; swine, 0.001%, 0.01%, 0.1% intradermal): fluoresced brightly every time that a major trunk was identified | patients with fluorescence observed ([3]; dose-finding phase): 4 out of 5 | sentinel lymph node fluorescence in phase II study ([3]; phase II to date): observed in all 51 patients | detection of fluorescein in lymphatic vessels and in sentinel lymph nodes [4]: spectacularly successful
